# Primary screen of a compound library

Protein sequences, listed by entry. Tags and fused reporters are not part of them.
UniProt E9BF75, entry or part of it: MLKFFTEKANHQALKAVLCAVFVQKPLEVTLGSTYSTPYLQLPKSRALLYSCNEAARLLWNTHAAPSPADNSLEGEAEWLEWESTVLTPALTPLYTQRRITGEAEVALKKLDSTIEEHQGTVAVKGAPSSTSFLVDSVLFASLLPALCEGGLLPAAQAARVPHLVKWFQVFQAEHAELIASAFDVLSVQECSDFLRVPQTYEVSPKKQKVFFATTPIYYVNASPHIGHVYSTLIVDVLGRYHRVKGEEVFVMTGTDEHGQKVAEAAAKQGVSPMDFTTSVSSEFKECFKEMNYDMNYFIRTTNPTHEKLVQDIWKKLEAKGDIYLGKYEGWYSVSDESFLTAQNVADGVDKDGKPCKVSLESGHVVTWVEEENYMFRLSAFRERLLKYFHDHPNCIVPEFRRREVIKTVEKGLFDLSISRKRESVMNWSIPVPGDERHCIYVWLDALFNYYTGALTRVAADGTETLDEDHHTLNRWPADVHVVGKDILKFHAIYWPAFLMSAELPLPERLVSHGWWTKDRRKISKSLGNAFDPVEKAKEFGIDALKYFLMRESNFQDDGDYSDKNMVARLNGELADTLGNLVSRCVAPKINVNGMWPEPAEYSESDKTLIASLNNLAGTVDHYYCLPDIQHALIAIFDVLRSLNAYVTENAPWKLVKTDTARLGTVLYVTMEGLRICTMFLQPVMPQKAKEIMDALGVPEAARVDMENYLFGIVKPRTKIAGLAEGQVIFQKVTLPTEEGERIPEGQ

Source: ChEMBL document CHEMBL3988442, “University of Dundee, Small-Polar-MMV Screening Library” (2021).

Results are percentages, as filed.
The record does not define 0% and 100%; most values in the screen are far below 50% and negative numbers occur (in some assays of this library far below -100).
This is an unselected part of the compounds tested.

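Primary screen of methionyl-tRNA synthetase; the read-out is not stated. Target: Methionyl-tRNA synthetase (putative), Leishmania donovani (UniProt E9BF75). The test concentration is not given. Values are per cent inhibition. Of about 68,000 compounds tested this way, about 24 (0.035%) reached 50% or more in at least one test.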

CCCNC(=O)c1ccc(-c2ccco2)[nH]c1=O gave -1.72%. CN1CCC(Cc2noc(CCc3nc4ccccc4nc3O)n2)CC1 gave 15.72%. For COc1cccc(CC(=O)N2CCCN(c3ccnc(C)c3)CC2)c1 the result was 21.04%. Result for CN(C)Cc1ccnc(C2CCCN2Cc2cc3ccccc3s2)n1 (stereo not shown) was 24.48%. Result for Cc1n[nH]c(=O)c2c(NC(=O)CN3CCC(O)CC3)oc(C)c12 was 1.227%. For COCCN(Cc1ccccc1C)c1nc(C)nc2oc(C)nc12 the result was 7.436%.

CN(C)C(=O)CCNC(=O)c1cnc(-c2ccccc2)nc1 read 9.964%. O=C(Nc1nc2c(s1)CN(S(=O)(=O)C1CC1)CC2)c1ccc(Cl)s1 read 16.95%. CCN(C)C(=O)c1cccc(S(=O)(=O)NCCc2nc(C)cc(=O)[nH]2)c1 gave 11.15%. Cc1noc(C2CCN(C(=O)CCc3ccccn3)CC2)n1 read 12.72%. For O=C1CCCN1Cc1ncn2c1CN(C(=O)NC1CCCC1)CCC2 the result was 19.02%. CCc1nc(CCNc2ncccc2C#N)sc1C read 10.57%.

CC(c1nc(C2CC2)no1)N(C)Cc1ccc2c(c1)OCCO2 (stereo not shown) read 9.946%. Result for Cc1ccc(C(=O)N2C[C@@H]3CCN(c4cccnc4)C[C@@H]3C2)cn1 was 9.841%. CCn1cnnc1C1CCN(C(=O)c2cccc(OC)c2OC)CC1 read 16.81%. CC(O)CN1CCN(Cc2csc(-c3ncccn3)n2)CC1 (stereo not shown) read 9.859%. CN1CCN(c2ncnc3c2CCN(S(=O)(=O)C2CC2)CC3)CC1 gave 7.038%. CC(C(=O)NC1(C#N)CCCCC1)N1CCc2c(ncn2C)C1 (stereo not shown) gave 17.82%.

Fc1cccc(N2CCc3ncnc(N4CCOCC4)c3CC2)c1 read -7.268%. Result for Cc1ccccc1CNCC(O)c1ccc(OC(C)C)cc1 (stereo not shown) was 18.05%. COc1c(CNC2CCN(c3ncccn3)CC2)c(C(C)C)nn1C gave 12.6%. CC(O)c1cccc(-n2c(CCC(=O)O)nc3ccccc32)c1 (stereo not shown) read 1.804%. Cc1c(NCC(C)(C)C)cccc1C(=O)N(C)Cc1ncnn1C gave 6.069%. With CC(C#N)(NC(=O)COc1ccccc1Br)C1CC1 (stereo not shown) the screen gave -2.439%.

CC(C)(C)c1nc(CN2CCCC(Cn3cncn3)C2)no1 (stereo not shown) read 16.52%. Cc1ccc(F)cc1S(=O)(=O)NCc1cccnc1N(C)C read 6.62%. Result for CC(O)(CN1CCC2(CC1)OCCO2)c1cccc(C(F)(F)F)c1 (stereo not shown) was 12.89%. With C=C(C)COCCNC(=O)C1CCCN1C(C)=O (stereo not shown) the screen gave 4.453%. CC(C)Oc1cc(N2CCC(N3CCC(O)CC3)CC2)nc(N)n1 read 18.48%. For Cc1cc(C)n(CC2CCCN2C(=O)c2ccc3c(c2)COC3)n1 (stereo not shown) the result was 10.36%.

Result for Cn1ccnc1CNC(=O)CCc1cccc(F)c1 was 11.84%.

Repeated from the top, 3 entries:

compound,inhibition
CCCNC(=O)c1ccc(-c2ccco2)[nH]c1=O,-1.72
CN1CCC(Cc2noc(CCc3nc4ccccc4nc3O)n2)CC1,15.72
COc1cccc(CC(=O)N2CCCN(c3ccnc(C)c3)CC2)c1,21.04